Measured values taken from patent publication US20220275067A1 (PROTHENA BIOSCIENCES, published 2022).
No constants are given. Whether binding was seen depends on the method and setting. Some entries that bind do so weakly or less than the wild type.

The chains behind the UniProt entries cited, without tags or fusion partners. Where a name states a change or a piece, a line headed by the entry shows the natural chain unless it says otherwise. A line that says so, or that is headed by a name, gives the form on record, which may keep a tag or linker.
tau in samples from brains of Alzheimer's disease patients (P10636, form named): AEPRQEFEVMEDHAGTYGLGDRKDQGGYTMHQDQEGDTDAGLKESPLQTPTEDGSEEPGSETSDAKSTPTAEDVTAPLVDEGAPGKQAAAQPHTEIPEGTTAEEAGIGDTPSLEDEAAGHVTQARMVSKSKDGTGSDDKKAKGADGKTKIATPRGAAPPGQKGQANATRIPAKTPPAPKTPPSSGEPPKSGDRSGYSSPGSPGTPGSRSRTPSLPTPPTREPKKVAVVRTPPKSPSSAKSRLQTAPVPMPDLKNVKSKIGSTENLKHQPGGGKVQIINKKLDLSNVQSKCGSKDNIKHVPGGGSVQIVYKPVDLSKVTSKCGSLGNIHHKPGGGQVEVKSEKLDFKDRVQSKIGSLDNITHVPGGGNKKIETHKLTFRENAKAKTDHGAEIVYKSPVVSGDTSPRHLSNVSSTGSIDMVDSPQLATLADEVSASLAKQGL

Experiments:
[1] = target: tau in samples from brains of Alzheimer's disease patients (human) (UniProt P10636); assay: immunoprecipitation from the sarkosyl-insoluble fraction, blot with K9JA
[2] = target: tau in samples from brains of Alzheimer's disease patients (human) (UniProt P10636); assay: Western blot
[3] = target: tau in samples from brains of Alzheimer's disease patients (human) (UniProt P10636); assay: Western blot of soluble and sarkosyl-insoluble brain fractions, antibody at 0.5 ug/mL
[4] = target: tau in normal control human brain sections (human) (UniProt P10636); assay: Western blot: RIPA-soluble and sarkosyl-insoluble frontal cortex fractions (1 HC, 4 AD) on SDS-PAGE, probed with the antibody at 0.5 ug/mL, goat anti-mouse IRDye-800
[5] = target: tau in samples from brains of Alzheimer's disease patients (human) (UniProt P10636); assay: as above
[6] = target: tau in normal control human brain sections (human) (UniProt P10636); assay: immunohistochemistry on fresh-frozen human brain sections
[7] = target: tau in samples from brains of Alzheimer's disease patients (human) (UniProt P10636); assay: as above
[8] = target: tau in normal control human brain sections (human) (UniProt P10636); assay: Immunohistochemistry on 10 um fresh-frozen human brain sections, DAB detection (BOND Polymer Refine), hematoxylin counterstain
[9] = target: tau in samples from brains of Alzheimer's disease patients (human) (UniProt P10636); assay: as above
[10] = target: T1, adjacent tau microarray peptides with the consensus motif QIVYKP (human); assay: peptide microarray of tau 15-mers
T1 sequence (peptide): QIVYKP

[11] = target: T2, adjacent tau microarray peptides with the consensus motif EIVYKSP (human); assay: peptide microarray of tau 15-mers
T2 sequence (peptide): EIVYKSP

[12] = target: tau in samples from brains of Alzheimer's disease patients (human) (UniProt P10636); assay: Immunoprecipitation from the sarkosyl-insoluble brain fraction, goat anti-mouse magnetic beads, SDS-PAGE, blot with polyclonal K9JA; lanes alternate normal / AD extract (p-1045)
[13] = target: T3, adjacent tau microarray peptides with the consensus motif EIVYKS (human); assay: peptide microarray of tau 15-mers
T3 sequence (peptide): EIVYKS

Measured: binding

B1: mouse 14H3 antibody (antibody, mouse IgG2a, V domains shown)
VH: QVTLKESGPGILQPSQTLSLTCSFSGFSLSTYGMGVGWIRQPSGKGLEWLANIWWDDIKYYNAALKSRLTISKDTSKNQVFLKIASVDTADTATYYCARNVDYWGQGTTLTVSS
VL: DVVMTQTPLSLPVSLGDQASISCRSSQSLVHSNGNTFLHWYLQKPGQSPKLLIYKVSNRFSGVPDRFSGSGSGTDFTLKISRVEAEDLGVYFCSQSTLVPWTFGGGTKLEIK
notes: also called m14H3
binds: [1] | [2] | [3] | [4] | [5] | [6] | [7] | [8] | [9]

B2: mouse 9F5 antibody (antibody, mouse IgG1, V domains shown)
VH: EVQLQQSGAELVRPGASVKLSCTASGFNIKDDYMNWVKQRPERGLEWIGWIDPENGDTEYASKFQGKATMTADTSSNTAYLQFSSLTSEDTAVYYCTTSNGWGQGTLVTVST
VL: DIVMTQAAFSNPVTLGTSASISCRSSKSLLHSNGITYLYWYLQKPGQSPQLLIYQMSNLASGVPDRFSSSGSGTDFTLRISRVEAEDVGVYYCAQNLELPLTFGAGTKLELK
notes: also called m9F5; murine 9F5
binds: [10] | [11]

B3: mouse 10C12 antibody (antibody, mouse IgG2a, V domains shown)
VH: EVQLQQSGAELVRPGASVKLSCTASGFNIKDDYMNWVKQRPERGLEWIGWIDPENGDTEYASKFQGKATMTADTSSNTAYLQFSSLTSEDTAVYYCTTSNGWGQGTLVTVST
VL: DIVMTQAAFSNPVTLGTSASISCRSSKSLLHSNGITYLYWYLQKPGQSPQLLIYQMSNLASGVPDRFSSSGSGTDFTLRISRVEAEDVGVYYCAQNLELPLTFGAGTKLELK
notes: also called m10C12
binds: [10] | [11]

B4: mouse 17C12 antibody (antibody, mouse IgG2a, V domains shown)
VH: KIQLQQSGAELVRPGASVKLSCTASAFNIKDDYMNWVKQRPERGLEWIGWIDPENGDTKYASKFQGKATMTADTSSNTAYLQLSSLTSEDTAVYYCTTSNGWGQGTLVTVSA
VL: DVVMTQTPLTLSVTIGQPASISCTSSQSLLHSNRKTYLHWLLQRPGQSPKLLIYLVSKLESGVPDRFSGSGSGTDFTLKISRVEAEDLGVYYCLQTTHFPRTFGGGTKLEIK
notes: also called m17C12
binds: [1] | [2] | [3] | [5] | [12] | [6] | [7] | [10] | [11] | [9]

B5: mouse 2D11 antibody (antibody, mouse IgG2a, V domains shown)
VH: EVQLQQSGAELVRPGASVKLSCTASGFNIKDDYMNWVKQRPERGLEWIGWIDPENGDTEYASKFQGKATMTADTSSNTAYLQFSSLTSEDTAVYYCTTSNGWGQGTLVTVST
VL: DIVMTQAAFSNPVTLGTSASISCRSSKSLLHSNGITYLYWYLQKPGQSPQLLIYQMSNLASGVPDRFSSSGSGTDFTLRISRVEAEDVGVYYCAQNLELPLTFGAGTKLELK
binds: [10] | [13]

B6: mouse 12C4 antibody (antibody, mouse IgG2a, V domains shown)
VH: EVQLQQSGAELVRPGASVKLSCTASGFNIKDDYMNWVRQRPERGLEWIGWIDPENGDTAYASKFQGKATMTADTSSNTAYLQFSSLTSEDSAVYYCTTSNGWGQGTLVTVSA
VL: DIVMTQAAFSNPVTLGTSASISCRSSKSLLHSNGITYLYWYLQKPGQSPQLLIYQMSNLASGVPDRFSSSGSGTDFTLRISRVEAEDVGVYYCAQNLELPLTFGAGTKLELK
notes: also called m12C4
binds: [1] | [2] | [3] | [5] | [12] | [6] | [7] | [9]
